Results are given in words; binding and its absence hold for the method and conditions named. Binding seen in cells or lysates may run through a third protein. Some binding calls cover weakened binding; strength is not graded here. For some assays here: Where a sequence is shown, tags or fusion partners need not be part of it. Blank lines part the entries; values can stand above or below the molecule they belong to.
Assays:
[1] = biological target: T1, His-tagged PSF (polypyrimidine tract-binding protein-associated splicing factor) (UniProt P23246); experiment: condition: only cells without hypoxia (normoxic control); co-IP; as a1, but cells left in normoxic condition (parallel control without hypoxia)
T1 sequence: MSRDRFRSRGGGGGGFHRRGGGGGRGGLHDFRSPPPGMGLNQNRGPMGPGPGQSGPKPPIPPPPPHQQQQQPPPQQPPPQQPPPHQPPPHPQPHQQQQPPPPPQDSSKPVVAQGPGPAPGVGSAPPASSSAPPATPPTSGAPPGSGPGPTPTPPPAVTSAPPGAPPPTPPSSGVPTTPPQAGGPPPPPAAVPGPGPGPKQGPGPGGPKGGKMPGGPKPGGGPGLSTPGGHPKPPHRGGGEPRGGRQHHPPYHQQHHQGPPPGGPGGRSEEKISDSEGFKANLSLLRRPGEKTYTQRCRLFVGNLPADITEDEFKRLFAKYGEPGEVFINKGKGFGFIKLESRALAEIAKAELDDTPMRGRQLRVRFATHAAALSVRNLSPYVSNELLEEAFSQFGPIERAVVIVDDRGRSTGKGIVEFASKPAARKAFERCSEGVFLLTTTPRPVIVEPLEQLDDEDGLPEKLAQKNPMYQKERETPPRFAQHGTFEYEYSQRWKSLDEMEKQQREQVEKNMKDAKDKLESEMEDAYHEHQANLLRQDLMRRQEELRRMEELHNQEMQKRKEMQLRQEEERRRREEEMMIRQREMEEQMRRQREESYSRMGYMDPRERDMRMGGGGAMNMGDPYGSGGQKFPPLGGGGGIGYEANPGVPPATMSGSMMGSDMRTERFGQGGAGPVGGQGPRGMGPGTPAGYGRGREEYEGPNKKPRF

Sequences of proteins named here, by UniProt entry; tags and fusion partners are left off.
UniProt Q16665: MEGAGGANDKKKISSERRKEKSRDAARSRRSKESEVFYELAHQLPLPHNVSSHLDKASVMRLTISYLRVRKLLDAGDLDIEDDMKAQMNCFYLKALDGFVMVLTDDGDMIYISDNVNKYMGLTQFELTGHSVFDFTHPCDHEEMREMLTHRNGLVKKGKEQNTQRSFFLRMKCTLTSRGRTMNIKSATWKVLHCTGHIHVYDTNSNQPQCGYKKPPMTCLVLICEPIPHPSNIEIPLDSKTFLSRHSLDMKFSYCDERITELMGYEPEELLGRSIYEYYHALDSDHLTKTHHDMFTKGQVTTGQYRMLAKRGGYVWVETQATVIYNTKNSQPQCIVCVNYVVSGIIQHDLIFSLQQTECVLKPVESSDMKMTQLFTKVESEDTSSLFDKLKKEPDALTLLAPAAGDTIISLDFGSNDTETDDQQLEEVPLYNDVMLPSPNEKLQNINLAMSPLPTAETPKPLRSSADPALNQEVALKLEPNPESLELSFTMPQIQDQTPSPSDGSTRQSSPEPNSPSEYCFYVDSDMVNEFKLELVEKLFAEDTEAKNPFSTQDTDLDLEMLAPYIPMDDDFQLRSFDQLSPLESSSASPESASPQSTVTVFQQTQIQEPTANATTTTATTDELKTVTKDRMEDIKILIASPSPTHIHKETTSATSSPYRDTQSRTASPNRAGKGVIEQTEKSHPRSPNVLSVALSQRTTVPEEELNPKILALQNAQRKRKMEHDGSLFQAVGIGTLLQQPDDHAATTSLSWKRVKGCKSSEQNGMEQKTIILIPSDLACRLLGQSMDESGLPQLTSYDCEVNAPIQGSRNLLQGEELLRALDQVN

[2] = biological target: T1, His-tagged PSF (polypyrimidine tract-binding protein-associated splicing factor); experiment: co-IP; HRMECs co-transfected with pCIneo-HIF-1α-HA and pcDNA3.1-His-PSF, 36 h, then hypoxia 3 h; RIPA lysis; whole cell lysates precipitated with anti-His or anti-HA antibody and protein G/A-Sepharose; blot with anti-HA or anti-His
[3] = biological target: T2, PSF (polypyrimidine tract-binding protein-associated splicing factor), endogenous (human (endogenous in HRMECs)) (UniProt P23246); experiment: co-IP; as a5, but nuclear cell lysates from control HRMECs (no hypoxia)
T2 sequence: T1 sequence

[4] = biological target: T2, PSF (polypyrimidine tract-binding protein-associated splicing factor), endogenous (human (endogenous in HRMECs)); experiment: co-IP; antibodies against PSF incubated with nuclear cell lysates from hypoxia-treated HRMECs; blot for PSF, Hakai and HIF-1α
[5] = biological target: T2, PSF (polypyrimidine tract-binding protein-associated splicing factor), endogenous (human (endogenous in HRMECs)); experiment: co-IP; endogenous proteins; HRMECs exposed to hypoxia (3 h, or a time course of 30 to 150 min); RIPA lysis; total cell lysates precipitated with anti-PSF antibody and protein G/A-Sepharose; blot with anti-HIF-1α, anti-PSF or anti-Hakai; cells untreated or transfected with scrambled siRNA, PSF siRNA or pcDNA-His-PSF
[6] = biological target: T1, His-tagged PSF (polypyrimidine tract-binding protein-associated splicing factor); experiment: co-IP; as a3, but cells without hypoxia stimulation
[7] = substrate: T3, PSF (polypyrimidine tract-binding protein-associated splicing factor), endogenous (human (endogenous in HRMECs)) (UniProt P23246); experiment: as above
T3 sequence: T1 sequence

[8] = substrate: T3, ; experiment: co-IP; as a5, but nuclear cell lysates from control HRMECs (no hypoxia); remark: listed apart in the source
[9] = substrate: T3, ; experiment: co-IP; antibodies against PSF incubated with nuclear cell lysates from hypoxia-treated HRMECs; blot for PSF, Hakai and HIF-1α; remark: listed apart in the source
[10] = biological target: T1, His-tagged PSF (polypyrimidine tract-binding protein-associated splicing factor); experiment: co-IP; endogenous proteins; HRMECs exposed to hypoxia (3 h, or a time course of 30 to 150 min); RIPA lysis; total cell lysates precipitated with anti-PSF antibody and protein G/A-Sepharose; blot with anti-HIF-1α, anti-PSF or anti-Hakai; cells untreated or transfected with scrambled siRNA, PSF siRNA or pcDNA-His-PSF
[11] = substrate: T3, ; experiment: as above; remark: listed apart in the source

binding [1]: no binding
binding [2]: binds
Molecule: HA-tagged HIF-1α (hypoxia-inducible factor-1 alpha) (from UniProt Q16665 1-826)

binding [4]: binds
binding [5]: binds
Molecule: HIF-1α (hypoxia-inducible factor-1 alpha), endogenous (from UniProt Q16665 1-826)
binding [3]: no binding (condition: cells without hypoxia (control))

binding [9]: binds
binding [10]: binds
binding [11]: binds
B1: Hakai (E3 ubiquitin ligase), endogenous (protein, UniProt Q75N03 1-491)
chain: MDHTDNELQGTNSSGSLGGLDVRRRIPIKLISKQANKAKPAPRTQRTINRMPAKAPPGDEEGFDYNEEERYDCKGGELFANQRRFPGHLFWDFQINILGEKDDTPVHFCDKCGLPIKIYGRMIPCKHVFCYDCAILHEKKGDKMCPGCSDPVQRIEQCTRGSLFMCSIVQGCKRTYLSQRDLQAHINHRHMRAGKPVTRASLENVHPPIAPPPTEIPERFIMPPDKHHMSHIPPKQHIMMPPPPLQHVPHEHYNQPHEDIRAPPAELSMAPPPPRSVSQETFRISTRKHSNLITVPIQDDSNSGAREPPPPAPAPAHHHPEYQGQPVVSHPHHIMPPQQHYAPPPPPPPPISHPMPHPPQAAGTPHLVYSQAPPPPMTSAPPPITPPPGHIIAQMPPYMNHPPPGPPPPQHGGPPVTAPPPHHYNPNSLPQFTEDQGTLSPPFTQPGGMSPGIWPAPRGPPPPPRLQGPPSQTPLPGPHHPDQTRYRPYYQ
binding [6]: no binding (condition: cells without hypoxia)
binding [7]: no binding (condition: cells without hypoxia)
binding [8]: no binding (condition: cells without hypoxia (control))

— publication PMC7879653
